From PMC5414174, “DNA replication licensing factor Cdc6 and Plk4 kinase antagonistically regulate centrosome duplication via Sas-6” (Nature Communications, 2017) come the findings set out here.

Experiment [1] has as its target T1, GFP-tagged Plk4 WT (human) (UniProt O00444).
T1 sequence: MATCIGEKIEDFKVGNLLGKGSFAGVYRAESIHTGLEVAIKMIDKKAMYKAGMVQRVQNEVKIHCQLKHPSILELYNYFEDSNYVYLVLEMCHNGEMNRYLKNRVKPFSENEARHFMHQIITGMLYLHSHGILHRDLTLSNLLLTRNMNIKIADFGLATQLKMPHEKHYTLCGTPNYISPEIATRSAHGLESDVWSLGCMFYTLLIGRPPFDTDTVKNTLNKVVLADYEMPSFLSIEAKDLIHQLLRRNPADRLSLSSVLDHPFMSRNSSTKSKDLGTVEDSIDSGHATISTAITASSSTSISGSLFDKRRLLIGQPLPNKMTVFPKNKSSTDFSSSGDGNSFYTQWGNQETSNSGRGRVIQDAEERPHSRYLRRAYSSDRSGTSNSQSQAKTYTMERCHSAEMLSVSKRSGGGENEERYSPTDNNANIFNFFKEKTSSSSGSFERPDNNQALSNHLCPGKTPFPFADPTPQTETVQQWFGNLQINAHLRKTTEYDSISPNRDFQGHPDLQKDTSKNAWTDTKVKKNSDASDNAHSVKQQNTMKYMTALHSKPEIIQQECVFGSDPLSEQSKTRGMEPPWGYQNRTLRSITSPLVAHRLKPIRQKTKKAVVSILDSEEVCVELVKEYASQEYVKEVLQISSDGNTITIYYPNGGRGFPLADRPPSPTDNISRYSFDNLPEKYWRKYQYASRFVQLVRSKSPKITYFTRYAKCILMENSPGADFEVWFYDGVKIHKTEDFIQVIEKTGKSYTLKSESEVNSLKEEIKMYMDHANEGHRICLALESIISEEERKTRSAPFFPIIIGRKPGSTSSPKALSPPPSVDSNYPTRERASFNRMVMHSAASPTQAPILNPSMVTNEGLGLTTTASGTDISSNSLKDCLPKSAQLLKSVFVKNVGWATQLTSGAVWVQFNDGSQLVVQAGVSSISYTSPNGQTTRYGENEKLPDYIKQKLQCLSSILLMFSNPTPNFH
In words: condition: only cells synchronized to the G1/S transition or G2 phase; co-IP; HEK293 cells co-transfected with GFP-Plk4 and Myc-Cdc6, synchronized to the G1/S transition or G2 phase; IP with GFP antibody.

In experiment [2] the target is T1, GFP-tagged Plk4 WT (human). Put plainly: co-IP; co-transfected HEK293 cells, total cell extract, IP with GFP antibody on protein A Sepharose, 20 mM Tris, 125 mM NaCl, 0.5% NP-40, pH 7.5, 2 h at 4 °C; western blot with Myc and GFP antibodies; in Fig. 4d cells released into S phase.
Experiment [3] addresses T2, GFP-tagged Plk4 K41M (human) (UniProt O00444).
T2 sequence: T1 sequence with K41M
Described as above.

The target of another experiment is T3, GFP-tagged Sas-6 (human) (UniProt Q6UVJ0).
T3 sequence: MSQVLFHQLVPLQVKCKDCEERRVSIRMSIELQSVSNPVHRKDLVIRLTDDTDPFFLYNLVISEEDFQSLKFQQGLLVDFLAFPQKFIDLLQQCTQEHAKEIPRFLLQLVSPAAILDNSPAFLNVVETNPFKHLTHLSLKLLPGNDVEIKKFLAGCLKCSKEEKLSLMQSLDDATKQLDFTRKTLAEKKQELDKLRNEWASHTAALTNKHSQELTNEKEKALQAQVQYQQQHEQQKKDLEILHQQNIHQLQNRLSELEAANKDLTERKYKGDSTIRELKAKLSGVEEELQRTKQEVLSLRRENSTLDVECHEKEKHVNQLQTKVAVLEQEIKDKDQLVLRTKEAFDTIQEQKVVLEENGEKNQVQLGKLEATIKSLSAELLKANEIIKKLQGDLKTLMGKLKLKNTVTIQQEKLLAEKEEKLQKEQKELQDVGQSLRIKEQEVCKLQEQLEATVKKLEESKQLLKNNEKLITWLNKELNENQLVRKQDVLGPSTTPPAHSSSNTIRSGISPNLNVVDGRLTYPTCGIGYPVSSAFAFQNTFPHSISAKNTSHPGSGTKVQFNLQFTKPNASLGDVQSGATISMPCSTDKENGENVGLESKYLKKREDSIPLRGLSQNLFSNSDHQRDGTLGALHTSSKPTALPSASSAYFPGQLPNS
The experiment is described as above.

Positions count from the first letter of the chain named. No constants are given. Whether binding was seen depends on the method and setting. In cells and extracts the contact can be indirect. Some results given as binding are weak or reduced against the parent protein; the word gives no strength. Where a sequence is shown, tags or fusion partners need not be part of it.

B1: Myc-tagged Cdc6 (protein, UniProt Q99741 1-560)
chain: MPQTRSQAQATISFPKRKLSRALNKAKNSSDAKLEPTNVQTVTCSPRVKALPLSPRKRLGDDNLCNTPHLPPCSPPKQGKKENGPPHSHTLKGRRLVFDNQLTIKSPSKRELAKVHQNKILSSVRKSQEITTNSEQRCPLKKESACVRLFKQEGTCYQQAKLVLNTAVPDRLPAREREMDVIRNFLREHICGKKAGSLYLSGAPGTGKTACLSRILQDLKKELKGFKTIMLNCMSLRTAQAVFPAIAQEICQEEVSRPAGKDMMRKLEKHMTAEKGPMIVLVLDEMDQLDSKGQDVLYTLFEWPWLSNSHLVLIGIANTLDLTDRILPRLQAREKCKPQLLNFPPYTRNQIVTILQDRLNQVSRDQVLDNAAVQFCARKVSAVSGDVRKALDVCRRAIEIVESDVKSQTILKPLSECKSPSEPLIPKRVGLIHISQVISEVDGNRMTLSQEGAQDSFPLQQKILVCSLMLLIRQLKIKEVTLGKLYEAYSKVCRKQQVAAVDQSECLSLSGLLEARGILGLKRNKETRLTKVFFKIEEKEIEHALKDKALIGNILATGLP
For B1, the binding result was “no binding” in experiment [1], “binds” in experiment [2], “no binding” in experiment [3] and “binds” in the experiment with GFP-tagged Sas-6 (human).
